B1: Q16566 (protein, UniProt Q16566 1-473, looked up)
chain: MLKVTVPSCSASSCSSVTASAAPGTASLVPDYWIDGSNRDALSDFFEVESELGRGATSIVYRCKQKGTQKPYALKVLKKTVDKKIVRTEIGVLLRLSHPNIIKLKEIFETPTEISLVLELVTGGELFDRIVEKGYYSERDAADAVKQILEAVAYLHENGIVHRDLKPENLLYATPAPDAPLKIADFGLSKIVEHQVLMKTVCGTPGYCAPEILRGCAYGPEVDMWSVGIITYILLCGFEPFYDERGDQFMFRRILNCEYYFISPWWDEVSLNAKDLVRKLIVLDPKKRLTTFQALQHPWVTGKAANFVHMDTAQKKLQEFNARRKLKAAVKAVVASSRLGSASSSHGSIQESHKASRDPSPIQDGNEDMKAIPEGEKIQGDGAQAAVKGAQAELMKVQALEKVKGADINAEEAPKMVPKAVEDGIKVADLELEEGLAEEKLKTVEEAAAPREGQGSSAVGFEVPQQDVILPEY
modifications: full-length
B2: Q9P1Y5 (protein, UniProt Q9P1Y5 1-1249, looked up)
chain: MVEAAPPGPGPLRRTFLVPEIKSLDQYDFSRAKAAASLAWVLRAAFGGAEHVPPELWEPFYTDQYAQEHVKPPVTRLLLSAELYCRAWRQALPQLETPPNPSALLALLARRGTVPALPERPVREADLRHQPILMGAHLAVIDALMAAFAFEWTKTLPGPLALTSLEHKLLFWVDTTVRRLQEKTEQEAAQRASPAAPADGAAPAQPSIRYRKDRVVARRAPCFPTVTSLQDLASGAALAATIHCYCPQLLRLEEVCLKDPMSVADSLYNLQLVQDFCASRLPRGCPLSLEDLLYVPPPLKVNLVVMLAELFMCFEVLKPDFVQVKDLPDGHAASPRGTEASPPQNNSGSSSPVFTFRHPLLSSGGPQSPLRGSTGSLKSSPSMSHMEALGKAWNRQLSRPLSQAVSFSTPFGLDSDVDVVMGDPVLLRSVSSDSLGPPRPAPARTPTQPPPEPGDLPTIEEALQIIHSAEPRLLPDGAADGSFYLHSPEGPSKPSLASPYLPEGTSKPLSDRPTKAPVYMPHPETPSKPSPCLVGEASKPPAPSEGSPKAVASSPAATNSEVKMTSFAERKKQLVKAEAEAGAGSPTSTPAPPEALSSEMSELSARLEEKRRAIEAQKRRIEAIFAKHRQRLGKSAFLQVQPREASGEAEAEAEEADSGPVPGGERPAGEGQGEPTSRPKAVTFSPDLGPVPHEGLGEYNRAVSKLSAALSSLQRDMQRLTDQQQRLLAPPEAPGSAPPPAAWVIPGPTTGPKAASPSPARRVPATRRSPGPGPSQSPRSPKHTRPAELRLAPLTRVLTPPHDVDSLPHLRKFSPSQVPVQTRSSILLAEETPPEEPAARPGLIEIPLGSLADPAAEDEGDGSPAGAEDSLEEEASSEGEPRVGLGFFYKDEDKPEDEMAQKRASLLERQQRRAEEARRRKQWQEVEKEQRREEAARLAQEEAPGPAPLVSAVPMATPAPAARAPAEEEVGPRKGDFTRQEYERRAQLKLMDDLDKVLRPRAAGSGGPGRGGRRATRPRSGCCDDSALARSPARGLLGSRLSKIYSQSTLSLSTVANEAHNNLGVKRPTSRAPSPSGLMSPSRLPGSRERDWENGSNASSPASVPEYTGPRLYKEPSAKSNKFIIHNALSHCCLAGKVNEPQKNRILEEIEKSKANHFLILFRDSSCQFRALYTLSGETEELSRLAGYGPRTVTPAMVEGIYKYNSDRKRFTQIPAKTMSMSVDAFTIQGHLWQGKKPTTPKKGGGTPK
modifications: full-length
B3: P07384 (protein, UniProt P07384 1-714, looked up)
chain: MSEEIITPVYCTGVSAQVQKQRARELGLGRHENAIKYLGQDYEQLRVRCLQSGTLFRDEAFPPVPQSLGYKDLGPNSSKTYGIKWKRPTELLSNPQFIVDGATRTDICQGALGDCWLLAAIASLTLNDTLLHRVVPHGQSFQNGYAGIFHFQLWQFGEWVDVVVDDLLPIKDGKLVFVHSAEGNEFWSALLEKAYAKVNGSYEALSGGSTSEGFEDFTGGVTEWYELRKAPSDLYQIILKALERGSLLGCSIDISSVLDMEAITFKKLVKGHAYSVTGAKQVNYRGQVVSLIRMRNPWGEVEWTGAWSDSSSEWNNVDPYERDQLRVKMEDGEFWMSFRDFMREFTRLEICNLTPDALKSRTIRKWNTTLYEGTWRRGSTAGGCRNYPATFWVNPQFKIRLDETDDPDDYGDRESGCSFVLALMQKHRRRERRFGRDMETIGFAVYEVPPELVGQPAVHLKRDFFLANASRARSEQFINLREVSTRFRLPPGEYVVVPSTFEPNKEGDFVLRFFSEKSAGTVELDDQIQANLPDEQVLSEEEIDENFKALFRQLAGEDMEISVKELRTILNRIISKHKDLRTKGFSLESCRSMVNLMDRDGNGKLGLVEFNILWNRIRNYLSIFRKFDLDKSGSMSAYEMRMAIESAGFKLNKKLYELIITRYSEPDLAVDFDNFVCCLVRLETMFRFFKTLDTDLDGVVTFDLFKWLQLTMFA
modifications: full-length
B4: O94985 (protein, UniProt O94985 1-981, looked up)
chain: MLRRPAPALAPAARLLLAGLLCGGGVWAARVNKHKPWLEPTYHGIVTENDNTVLLDPPLIALDKDAPLRFAESFEVTVTKEGEICGFKIHGQNVPFDAVVVDKSTGEGVIRSKEKLDCELQKDYSFTIQAYDCGKGPDGTNVKKSHKATVHIQVNDVNEYAPVFKEKSYKATVIEGKQYDSILRVEAVDADCSPQFSQICSYEIITPDVPFTVDKDGYIKNTEKLNYGKEHQYKLTVTAYDCGKKRATEDVLVKISIKPTCTPGWQGWNNRIEYEPGTGALAVFPNIHLETCDEPVASVQATVELETSHIGKGCDRDTYSEKSLHRLCGAAAGTAELLPSPSGSLNWTMGLPTDNGHDSDQVFEFNGTQAVRIPDGVVSVSPKEPFTISVWMRHGPFGRKKETILCSSDKTDMNRHHYSLYVHGCRLIFLFRQDPSEEKKYRPAEFHWKLNQVCDEEWHHYVLNVEFPSVTLYVDGTSHEPFSVTEDYPLHPSKIETQLVVGACWQEFSGVENDNETEPVTVASAGGDLHMTQFFRGNLAGLTLRSGKLADKKVIDCLYTCKEGLDLQVLEDSGRGVQIQAHPSQLVLTLEGEDLGELDKAMQHISYLNSRQFPTPGIRRLKITSTIKCFNEATCISVPPVDGYVMVLQPEEPKISLSGVHHFARAASEFESSEGVFLFPELRIISTITREVEPEGDGAEDPTVQESLVSEEIVHDLDTCEVTVEGEELNHEQESLEVDMARLQQKGIEVSSSELGMTFTGVDTMASYEEVLHLLRYRNWHARSLLDRKFKLICSELNGRYISNEFKVEVNVIHTANPMEHANHMAAQPQFVHPEHRSFVDLSGHNLANPHPFAVVPSTATVVIVVCVSFLVFMIILGVFRIRAAHRRTMRDQDTGKENEMDWDDSALTITVNPMETYEDQHSSEEEEEEEEEEESEDGEEEDDITSAESESSEEEEGEQGDPQNATRQQQLEWDDSTLSY
modifications: full-length
B5: Q9BQT9 (protein, UniProt Q9BQT9 1-956, looked up)
chain: MTLLLLPLLLASLLASCSCNKANKHKPWIEAEYQGIVMENDNTVLLNPPLFALDKDAPLRYAGEICGFRLHGSGVPFEAVILDKATGEGLIRAKEPVDCEAQKEHTFTIQAYDCGEGPDGANTKKSHKATVHVRVNDVNEFAPVFVERLYRAAVTEGKLYDRILRVEAIDGDCSPQYSQICYYEILTPNTPFLIDNDGNIENTEKLQYSGERLYKFTVTAYDCGKKRAADDAEVEIQVKPTCKPSWQGWNKRIEYAPGAGSLALFPGIRLETCDEPLWNIQATIELQTSHVAKGCDRDNYSERALRKLCGAATGEVDLLPMPGPNANWTAGLSVHYSQDSSLIYWFNGTQAVQVPLGGPSGLGSGPQDSLSDHFTLSFWMKHGVTPNKGKKEEETIVCNTVQNEDGFSHYSLTVHGCRIAFLYWPLLESARPVKFLWKLEQVCDDEWHHYALNLEFPTVTLYTDGISFDPALIHDNGLIHPPRREPALMIGACWTEEKNKEKEKGDNSTDTTQGDPLSIHHYFHGYLAGFSVRSGRLESREVIECLYACREGLDYRDFESLGKGMKVHVNPSQSLLTLEGDDVETFNHALQHVAYMNTLRFATPGVRPLRLTTAVKCFSEESCVSIPEVEGYVVVLQPDAPQILLSGTAHFARPAVDFEGTNGVPLFPDLQITCSISHQVEAKKDESWQGTVTDTRMSDEIVHNLDGCEISLVGDDLDPERESLLLDTTSLQQRGLELTNTSAYLTIAGVESITVYEEILRQARYRLRHGAALYTRKFRLSCSEMNGRYSSNEFIVEVNVLHSMNRVAHPSHVLSSQQFLHRGHQPPPEMAGHSLASSHRNSMIPSAATLIIVVCVGFLVLMVVLGLVRIHSLHRRVSGAGGPPGASSDPKDPDLFWDDSALTIIVNPMESYQNRQSCVTGAVGGQQEDEDSSDSEVADSPSSDERRIIETPPHRY
modifications: full-length

Test: TMTcalibrator quantification of regulated proteins in AD CSF versus control
Set-up: species or system human
Settings: CSF of AD patient versus control; non-modified peptides of each protein summed for three control and three AD cases

| Molecule | Log2 AD/Control |
| --- | --- |
| B1 | 0.85 |
| B2 | 0.91 |
| B3 | 1.06 |
| B4 | 0.75 |
| B5 | 0.76 |
